# Data: patent publication US20070032419A1 (ONCOSCIENCE, published 2007)
# These are yes or no findings as the source states them, for the method shown. Binding can be weak; no strength is given. For some of these results: Sequences can lack the tags named with a protein.
# Tests used:
# [1] = target: purified integrin αvβ3 (immobilized on microtiter plates); test: ELISA, 0.1 µM protein on immobilized αvβ3, detected with polyclonal anti-human TF antibody
# [2] = target: purified integrin αvβ3 (immobilized on microtiter plates); test: ELISA, purified αvβ3 immobilized on microtiter plates
# [3] = target: purified integrin αvβ3 (immobilized on microtiter plates); test: competition ELISA on immobilized αvβ3 against 0.1 µM tTF-RGD; peptide at 1-10 µM
# [4] = target: purified integrin αvβ3 (immobilized on microtiter plates); test: competition ELISA on immobilized αvβ3 against tTF-RGD
binding [1],binding [2],binding [3],binding [4],Binder
binds,binds,–,–,tTF-GNGRAHA fusion polypeptide with N-terminal affinity tag (protein) HHHHHHSSGLVPRGSGMKETAAAKFERQHMDSPDLGTDDDDKAMGSGTTNTVAAYNLTWKSTNFKTILEWEPKPVNQVYTVQISTKSGDWKSKCFYTTDTECDLTDEIVKDVKQTYLARVFSYPAGNVESTGSAGEPLYENSPEFTPYLETNLGQPTIQSFEQVGTKVNVTVEDERTLVRRNNTFLSLRDVFGKDLIYTLYYWKSSSSGKKTAKTNTNEFLIDVDKGENYCFSVQAVIPSRTVNRKSTDSPVECMGQEKGEFRGNGRAHA
–,–,binds,binds,GRGDSP [synthetic peptide GRGDSP]
